Experimental data reported in the supplement of paper PMC7858590.
Values joined by “and” are separate entries in the source; they are usually repeats but may differ in a detail not shown here. Equal values may be shown once. ± gives the standard deviation of the averaged measurements. This is one part of the list. This data set is noisy: repeats of one test often differ as much as different tests do.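 M-CSF-grown macrophages from blood monocytes pooled across four healthy donors, in an M1-like state, received compounds that had driven resting macrophages M2-like in a first screen. Each Z-score t-tests eccentricity of ~1000 cells per well against same-row DMSO wells. Compounds passing the +6 M2 cutoff, set by standard cytokine controls, count as reprogramming. M1 cutoff: −4.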

Test system: human monocyte-derived macrophages (polarized)
Assay: cell shape (eccentricity) Z-score vs DMSO control; macrophage state: M1-polarized (IFNg + TNFa), cytokines removed before treatment; higher = more elongated, M2-like morphology
Conditions: 24 h

SMILES	cell shape (Z-score) (5 µM)	cell shape (Z-score) (10 µM)
COc1ccc(-c2cc(=O)c3c(O)cc(OC)c(OC)c3o2)c(OC)c1	-2.14 ± 6.4	-1.04 ± 4.7
OC[C@H](Cc1ccccc1)Nc1nc(Oc2ccc3c(c2)CCC3)nc2c1ncn2Cc1ccc(-c2ccccc2)cc1	7.87 ± 4.5	6.14
Cn1c([N+](=O)[O-])cnc1COC(N)=O	-0.474 ± 3.6	-0.073 ± 1.8
CN(C)C(=O)n1nnnc1Cc1ccc(-c2ccccc2)cc1	7.73 ± 8.2	6.57 ± 5.6
Cc1cc(Nc2cc(N3CCN(C)CC3)nc(Sc3ccc(NC(=O)C4CC4)cc3)n2)n[nH]1		3.75 and 5.81 and 5.13
NC(=O)Nc1cc(-c2cccc(F)c2)sc1C(=O)N[C@H]1CCCNC1	0.624 ± 0.57	6.78 ± 4.4
c1ccc2c(Oc3nc(Nc4ccc(N5CCOCC5)cc4)c4ncn(C5CCCCC5)c4n3)cccc2c1	5.22	9.65
O=C(Cc1ccc(-c2ccc(OCCN3CCOCC3)cc2)cn1)NCc1ccccc1	0.209 ± 1.1	-0.21 ± 3.2
CC[C@H]1OC(=O)[C@H](C)[C@@H](O[C@H]2C[C@@](C)(OC)[C@@H](O)[C@H](C)O2)[C@H](C)[C@@H](O[C@@H]2O[C@H](C)C[C@H](N(C)C)[C@H]2O)[C@](C)(O)C[C@@H](C)C(=O)[C@H](C)[C@@H](O)[C@]1(C)O	0.289 ± 3.6	0.558 ± 0.073
COC(=O)C(CCCN=C(N)N)NC(=O)CCCc1c(-c2ccccc2)[nH]c2c(F)cc(F)cc12 (configuration not stated)	-1.74 ± 4.9	-1.34 ± 3.3
CC(=Cc1ccc(C(=O)O)cc1)c1ccc2c(c1)C(C)(C)CCC2(C)C	1.74 ± 6.3	-1.04 ± 4.1
CN(C)CC[C@H](CSc1ccccc1)Nc1ccc(S(=O)(=O)NC(=O)c2ccc(N3CCN(Cc4ccccc4-c4ccc(Cl)cc4)CC3)cc2)cc1[N+](=O)[O-]	-0.605 ± 0.048	4.71 ± 2.9
COc1c(OC)c(O)c2c(=O)c(O)c(-c3ccccc3)oc2c1OC	2.08 ± 7.1	-0.515 ± 6
CC1(C)CCC(CN2CCN(c3ccc(C(=O)NS(=O)(=O)c4ccc(NCC5CCOCC5)c([N+](=O)[O-])c4)c(Oc4cnc5[nH]ccc5c4)c3)CC2)=C(c2ccc(Cl)cc2)C1	0.143 ± 2.9	4.12 ± 4.7
COc1cc(C(=O)N2CCC(N3CCN(C)CC3)CC2)ccc1Nc1ncc2c(n1)N(C)c1ccccc1C(=O)N2C	-1.48 ± 6.7	-2.1 ± 7.5
Nc1nc2ccc(OC(F)(F)F)cc2s1	2.97 ± 0.95	-4.04 ± 2.1
O=S(=O)(c1cccc2cnccc12)N1CCNCC1	-0.106 ± 0.51	2.77 ± 0.082

Record cards, from the list above. Order of values: cell shape (Z-score) (5 µM)	cell shape (Z-score) (10 µM)
COc1ccc(-c2cc(=O)c3c(O)cc(OC)c(OC)c3o2)c(OC)c1 is entered as -2.14 ± 6.4	-1.04 ± 4.7
NC(=O)Nc1cc(-c2cccc(F)c2)sc1C(=O)N[C@H]1CCCNC1 is entered as 0.624 ± 0.57	6.78 ± 4.4

Continued:

SMILES	cell shape (Z-score) (5 µM)	cell shape (Z-score) (10 µM)
Nc1ncnc2n[nH]c(Nc3ccc(F)cc3)c12	0.777 ± 0.22	1.27 ± 0.84
COc1ccc2c(c1OC)CN(C)CCc1cc3c(cc1C(=O)C2)OCO3	4.16 ± 6.4	1.12 ± 5.4
N#Cc1ccc(COC[C@H]2O[C@@H](n3c(NCc4ccc(Cl)c(Cl)c4)nc4c(N)ncnc43)[C@H](O)[C@@H]2O)cc1	0.389 ± 5.9	0.665 ± 3.7
CC[C@@H]1C(=O)N(C)c2cnc(Nc3ccc(C(=O)NC4CCN(C)CC4)cc3OC)nc2N1C1CCCC1	9.88	10.9
CN1CCN(CCOc2cc(OC3CCOCC3)c3c(Nc4c(Cl)ccc5c4OCO5)ncnc3c2)CC1	2.1 ± 1.4	3.08 ± 1.4
CS(=O)(=O)c1cccc(CNc2nc(Nc3ccc4c(c3)CCC(=O)N4)ncc2C(F)(F)F)c1	-2 ± 4.1	-3.52 ± 5.2
CC1CC(=O)c2c(ccc3c2C(=O)c2cccc(O)c2C3O)C1 (configuration not stated)	-1.61 ± 5.9	-1.23 ± 5.2
N#CCNC(=O)c1ccc(-c2ccnc(Nc3ccc(N4CCOCC4)cc3)n2)cc1	4.33 ± 6	-2.57 ± 0.033
[O-][NH2+]c1ccc(O)c2ncccc12	-1.96 ± 3	0.00797 ± 0.46
Clc1ccc(C2(c3ccc(-c4cn[nH]c4)cc3)CCNCC2)cc1	7 ± 5.3	11.2
C#C[C@]1(O)CC[C@H]2[C@@H]3CCC4=Cc5oncc5C[C@]4(C)[C@H]3CC[C@@]21C	0.587 ± 1.9	4.39 ± 3
O=c1cc(-c2ccc(O)cc2)oc2cc(O)ccc12	3.84	6.39 ± 2.5
CCOC(=O)N[C@@H]1CC[C@@H]2[C@@H](C1)C[C@H]1C(=O)O[C@H](C)[C@H]1[C@H]2/C=C/c1ccc(-c2cccc(F)c2)cn1	2.42 ± 2.1	0.133 ± 4.6
COc1ccc(-c2cc(=O)c3c(O)cc(O)cc3o2)cc1O	-11.3 ± 10	-0.0502 ± 3.3
O=C(O)C[C@H](O)C[C@H](O)/C=C/c1c(C2CC2)nc2ccccc2c1-c1ccc(F)cc1	2.02 ± 2.4	1.34 ± 1.5
Cc1cc(Nc2nc(N[C@@H](C)c3ncc(F)cn3)ncc2Cl)[nH]n1	-3.41 ± 6.6	-13.4 ± 5
O=C(O[C@@H]1Cc2c(O)cc(O)cc2O[C@@H]1c1cc(O)c(O)c(O)c1)c1cc(O)c(O)c(O)c1	1.14 ± 6.9	0.218 ± 3.9
